PubChem BioAssay AID1224830 | NIAID | 2016
Assay: 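Regulators of TLR4 signalling towards TNF-alpha in macrophage-like cells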 (primary screen). System: human THP-1 monocytic leukaemia cells, TNF dual-luciferase reporter clone, PMA-differentiated to macrophage-like cells. Reagents: siRNA pool against human genes, 50 nM. Timing: LPS for 4 h, given about 3 days after siRNA transfection. Treatment: bacterial LPS (TLR4 ligand), 10 ng/ml. Measurement: 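Ratio of firefly to renilla light, scaled to the plate median and expressed as a robust z-score per replicate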. Direction: TNF reporter robust z-score: higher = stronger TNF reporter response to LPS. Hit rule: 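a well is active when its z-score exceeds 2.8 or falls below -1.5; control wells carry no call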.
This is a random part of about 18,000 reagents. In the full data, about 2,900 (16%) got an active call. 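Calls are made per well; low scores hint the gene aids the LPS response, high scores that it dampens it.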 Entries without a mark were called inactive. Repeated entries: four replicate wells of each siRNA pool. Reagent sequences are not shown.

gene symbol	TNF reporter robust z-score
CFAP418 (GeneID 157657)	0.85
CFAP418 (GeneID 157657)	0.55
CFAP418 (GeneID 157657)	0.41
CFAP418 (GeneID 157657)	-0.68
MPP4 (GeneID 58538)	-0.02
MPP4 (GeneID 58538)	0.54
MPP4 (GeneID 58538)	0.48
MPP4 (GeneID 58538)	0.63
RHOQ (GeneID 23433)	-0.73
RHOQ (GeneID 23433)	0.46
RHOQ (GeneID 23433)	-0.6
RHOQ (GeneID 23433)	-0.11
ASCC3 (GeneID 10973)	0.7
ASCC3 (GeneID 10973)	1.97
ASCC3 (GeneID 10973)	0.89
ASCC3 (GeneID 10973)	1.21
ZDHHC16 (GeneID 84287)	-0.77
ZDHHC16 (GeneID 84287)	0.09
ZDHHC16 (GeneID 84287)	0.81
ZDHHC16 (GeneID 84287)	0.2
ZNF417 (GeneID 147687)	-0.63
ZNF417 (GeneID 147687)	0.74
ZNF417 (GeneID 147687)	0.27
ZNF417 (GeneID 147687)	0.49
TULP2 (GeneID 7288)	-0.55
TULP2 (GeneID 7288)	-0.54
TULP2 (GeneID 7288)	-0.97
TULP2 (GeneID 7288)	-0.4
IRF2BP1 (GeneID 26145)	-0.67
IRF2BP1 (GeneID 26145)	-0.55
IRF2BP1 (GeneID 26145)	-1.54 (active)
IRF2BP1 (GeneID 26145)	-0.34
IGHMBP2 (GeneID 3508)	-0.95
IGHMBP2 (GeneID 3508)	-0.37
IGHMBP2 (GeneID 3508)	-1.19
IGHMBP2 (GeneID 3508)	-0.67
PCDH8 (GeneID 5100)	-1.14
PCDH8 (GeneID 5100)	-1.01
PCDH8 (GeneID 5100)	-1.26
PCDH8 (GeneID 5100)	-0.71
VCX3B (GeneID 425054)	-1.23
VCX3B (GeneID 425054)	-0.81
VCX3B (GeneID 425054)	-0.54
VCX3B (GeneID 425054)	-1.15
ZNF524 (GeneID 147807)	0.52
ZNF524 (GeneID 147807)	0.74
ZNF524 (GeneID 147807)	1.25
ZNF524 (GeneID 147807)	-1.01
STAC2 (GeneID 342667)	-0.6
STAC2 (GeneID 342667)	0.01
STAC2 (GeneID 342667)	-0.82
STAC2 (GeneID 342667)	-0.18
RPS27A (GeneID 6233)	-0.83
RPS27A (GeneID 6233)	-0.24
RPS27A (GeneID 6233)	-0.65
RPS27A (GeneID 6233)	-1.11
FXYD3 (GeneID 5349)	-0.96
FXYD3 (GeneID 5349)	-0.64
FXYD3 (GeneID 5349)	-0.13
FXYD3 (GeneID 5349)	-0.18
SRPK2 (GeneID 6733)	-0.62
SRPK2 (GeneID 6733)	-0.1
SRPK2 (GeneID 6733)	-1.49
SRPK2 (GeneID 6733)	-1.2
BTRC (GeneID 8945)	8.59 (active)
BTRC (GeneID 8945)	1.99
BTRC (GeneID 8945)	3.05 (active)
BTRC (GeneID 8945)	7.27 (active)
SMN2 (GeneID 6607)	0.03
SMN2 (GeneID 6607)	-0.19
SMN2 (GeneID 6607)	-0.66
SMN2 (GeneID 6607)	-0.93
SFN (GeneID 2810)	-0.83
SFN (GeneID 2810)	-0.78
SFN (GeneID 2810)	-0.88
SFN (GeneID 2810)	-0.26

4 successive records from above, for reference:
gene symbol	TNF reporter robust z-score
SRPK2 (GeneID 6733)	-0.62
SRPK2 (GeneID 6733)	-0.1
SRPK2 (GeneID 6733)	-1.49
SRPK2 (GeneID 6733)	-1.2
